Test results taken from PMC8927117, “Structural Insight into the MCM double hexamer activation by Dbf4-Cdc7 kinase” (Nature Communications, 2022).
No constants are given. Whether binding was seen depends on the method and setting. Some binding calls cover weakened binding; strength is not graded here.

How the values were obtained:
[1] = biological target: T1, Mcm7 (subunit of the MCM double hexamer) (budding yeast (endogenous in W303)) (UniProt P38132); assay: cryo-EM structure; DDK-DH mixture (ATP-γ-S) mildly crosslinked by Grafix: 20-40% glycerol gradient with 0-0.025% glutaraldehyde, 150 mM KOAc, pH 7.6, 4 °C; States I-IV and Groups I-VI by focused 3D classification; both purified
T1 sequence: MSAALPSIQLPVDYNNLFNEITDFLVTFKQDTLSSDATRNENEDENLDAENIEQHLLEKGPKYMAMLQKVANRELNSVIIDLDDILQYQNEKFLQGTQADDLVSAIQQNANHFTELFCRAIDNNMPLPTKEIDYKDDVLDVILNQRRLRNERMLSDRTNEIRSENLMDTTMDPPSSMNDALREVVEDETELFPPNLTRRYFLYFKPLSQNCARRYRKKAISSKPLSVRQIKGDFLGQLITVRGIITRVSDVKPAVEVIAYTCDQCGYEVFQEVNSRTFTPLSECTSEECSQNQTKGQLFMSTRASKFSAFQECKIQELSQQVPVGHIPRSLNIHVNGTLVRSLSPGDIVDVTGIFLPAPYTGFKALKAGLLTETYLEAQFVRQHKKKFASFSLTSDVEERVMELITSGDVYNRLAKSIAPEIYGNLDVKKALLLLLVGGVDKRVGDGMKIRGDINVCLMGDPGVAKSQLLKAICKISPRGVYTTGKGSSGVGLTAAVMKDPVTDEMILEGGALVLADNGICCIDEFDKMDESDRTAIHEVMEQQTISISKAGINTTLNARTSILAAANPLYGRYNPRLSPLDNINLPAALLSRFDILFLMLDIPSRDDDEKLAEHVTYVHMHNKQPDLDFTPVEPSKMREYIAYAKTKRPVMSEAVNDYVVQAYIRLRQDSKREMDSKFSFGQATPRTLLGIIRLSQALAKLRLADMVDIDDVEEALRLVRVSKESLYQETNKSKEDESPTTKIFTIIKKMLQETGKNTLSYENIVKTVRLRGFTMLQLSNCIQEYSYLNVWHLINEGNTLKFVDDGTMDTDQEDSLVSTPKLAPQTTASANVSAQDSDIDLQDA

[2] = biological target: T2, Mcm5 (subunit of the MCM double hexamer) (budding yeast (endogenous in W303)) (UniProt P29496); assay: as above
T2 sequence: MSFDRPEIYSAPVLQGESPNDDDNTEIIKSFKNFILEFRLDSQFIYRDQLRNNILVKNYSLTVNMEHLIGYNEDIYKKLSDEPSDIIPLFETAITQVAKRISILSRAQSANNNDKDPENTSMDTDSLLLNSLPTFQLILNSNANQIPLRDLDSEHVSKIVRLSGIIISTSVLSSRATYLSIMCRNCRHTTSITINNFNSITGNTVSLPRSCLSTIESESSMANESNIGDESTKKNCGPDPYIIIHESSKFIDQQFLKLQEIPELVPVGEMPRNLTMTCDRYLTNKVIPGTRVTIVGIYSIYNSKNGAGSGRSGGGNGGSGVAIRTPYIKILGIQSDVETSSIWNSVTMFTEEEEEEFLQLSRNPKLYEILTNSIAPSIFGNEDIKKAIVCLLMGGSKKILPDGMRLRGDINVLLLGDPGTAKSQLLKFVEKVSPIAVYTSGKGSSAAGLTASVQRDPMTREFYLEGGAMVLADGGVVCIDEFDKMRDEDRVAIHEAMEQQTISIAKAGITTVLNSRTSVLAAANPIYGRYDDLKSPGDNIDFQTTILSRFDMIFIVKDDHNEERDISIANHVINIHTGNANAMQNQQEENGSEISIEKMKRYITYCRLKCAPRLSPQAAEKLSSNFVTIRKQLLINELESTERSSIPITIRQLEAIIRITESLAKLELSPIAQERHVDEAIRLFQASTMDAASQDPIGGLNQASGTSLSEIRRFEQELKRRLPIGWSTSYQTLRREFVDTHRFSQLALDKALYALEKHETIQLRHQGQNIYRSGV

B1: Dbf4 (subunit of the full-length DDK) (protein, UniProt P32325 1-704)
chain: MVSPTKMIIRSPLKETDTNLKHNNGIAASTTAAGHLNVFSNDNNCNNNNTTESFPKKRSLERLELQQQQHLHEKKRARIERARSIEGAVQVSKGTGLKNVEPRVTPKELLEWQTNWKKIMKRDSRIYFDITDDVEMNTYNKSKMDKRRDLLKRGFLTLGAQITQFFDTTVTIVITRRSVENIYLLKDTDILSRAKKNYMKVWSYEKAARFLKNLDVDLDHLSKTKSASLAAPTLSNLLHNEKLYGPTDRDPRTKRDDIHYFKYPHVYLYDLWQTWAPIITLEWKPQELTNLDELPYPILKIGSFGRCPFIGDRNYDESSYKRVVKRYSRDKANKKYALQLRALFQYHADTLLNTSSVNDQTKNLIFIPHTCNDSTKSFKKWMQEKAKNFEKTELKKTDDSAVQDVRNEHADQTDEKNSILLNETETKEPPLKEEKENKQSIAEESNKYPQRKELAATPKLNHPVLATFARQETEEVPDDLCTLKTKSRQAFEIKASGAHQSNDVATSFGNGLGPTRASVMSKNMKSLSRLMVDRKLGVKQTNGNNKNYTATIATTAETSKENRHRLDFNALKKDEAPSKETGKDSAVHLETNRKPQNFPKVATKSVSADSKVHNDIKITTTESPTASKKSTSTNVTLHFNAQTAQTAQPVKKETVKNSGYCENCRVKYESLEQHIVSEKHLSFAENDLNFEAIDSLIENLRFQI
binding [1]: binds weakly | binding [2]: binds weakly
